# Measured values: the supplement of paper PMC12542422
# Structures can show the parent of a compound that is named as a salt. ± gives the standard deviation of the averaged measurements. This is one part of the list. These are raw signals, not scaled to a control.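 HeLa cells imaged for ribosome-assembly readouts (ENP1 staining with or without export block, or inducible tagged ribosomal protein reporters); machine learning classified each cell's signal location against solvent (DMSO) controls. Hits exceeded the DMSO false-positive mean by five standard deviations, then were visually confirmed; three biological replicates.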
# How the values were obtained:
# [1] = test system: HeLa K (ENP1 immunofluorescence, +LMB); assay: fraction of cells with nucleolar or nucleolar/nucleoplasmic ENP1 signal (MainHitrate); higher = more cells with nucleolar/nuclear readout signal (for ENP1 -LMB: less RNAPI inhibition; for +LMB ENP1 and RP reporters: stronger nuclear/nucleolar retention, i.e. ribosome biogenesis defect); conditions: concentration: 1 µM; treatment time: 6 h; ENP1 +LMB; leptomycin B: 20 nM, last 1.5 h
# [2] = test system: HeLa K (ENP1 immunofluorescence, no LMB); assay: as above; conditions: concentration: 1 µM; treatment time: 6 h; ENP1 -LMB; leptomycin B: none
# HeLa RPS2-YFP reporter = assay: fraction of reporter-positive cells with nuclear (nucleolar or nucleolar/nucleoplasmic) RPS2-YFP (MainHitrate); higher = more cells with nucleolar/nuclear readout signal (for ENP1 -LMB: less RNAPI inhibition; for +LMB ENP1 and RP reporters: stronger nuclear/nucleolar retention, i.e. ribosome biogenesis defect); conditions: concentration: 1 µM; treatment time: 6 h
# HeLa RPL29-GFP reporter = assay: fraction of reporter-positive cells with nuclear (nucleolar or nucleolar/nucleoplasmic) RPL29-GFP (MainHitrate); higher = more cells with nucleolar/nuclear readout signal (for ENP1 -LMB: less RNAPI inhibition; for +LMB ENP1 and RP reporters: stronger nuclear/nucleolar retention, i.e. ribosome biogenesis defect); conditions: concentration: 1 µM; treatment time: 6 h
smiles,measurement,setting,value
CCc1cc(C(N)=S)ccn1 [Ethionamide],fraction,[1],0.0735 ± 0.094
same,fraction,[2],0.9988 ± 0.0022
same,fraction of reporter-positive cells with nuclear,HeLa RPS2-YFP reporter,0.101 ± 0.057
same,fraction of reporter-positive cells with nuclear,HeLa RPL29-GFP reporter,0.221 ± 0.079
CC(COc1ccccc1)N(CCCl)Cc1ccccc1 (stereo unspecified) [Phenoxybenzamine HCl],fraction,[1],0.0959 ± 0.098
same,fraction,[2],0.994 ± 0.011
same,fraction of reporter-positive cells with nuclear,HeLa RPS2-YFP reporter,0.118 ± 0.04
same,fraction of reporter-positive cells with nuclear,HeLa RPL29-GFP reporter,0.21 ± 0.066
O=C(O)c1cc(=O)c2ccccc2o1 [Chromocarb],fraction,[1],0.0802 ± 0.12
same,fraction,[2],0.986 ± 0.024
same,fraction of reporter-positive cells with nuclear,HeLa RPS2-YFP reporter,0.115 ± 0.11
same,fraction of reporter-positive cells with nuclear,HeLa RPL29-GFP reporter,0.21 ± 0.073
CCOC(=O)C1=C[C@]2(CC)CCCN3CCc4c(n1c1ccccc41)[C@@H]32 [Vinpocetine (Cavinton)],fraction,[1],0.0774 ± 0.083
same,fraction,[2],0.992 ± 0.013
same,fraction of reporter-positive cells with nuclear,HeLa RPS2-YFP reporter,0.114 ± 0.074
same,fraction of reporter-positive cells with nuclear,HeLa RPL29-GFP reporter,0.237 ± 0.076

# Part of the list above, reformatted:
smiles | measurement | setting | value
CC(COc1ccccc1)N(CCCl)Cc1ccccc1 (stereo unspecified) [Phenoxybenzamine HCl] | fraction of reporter-positive cells with nuclear | HeLa RPL29-GFP reporter | 0.21 ± 0.066
O=C(O)c1cc(=O)c2ccccc2o1 [Chromocarb] | fraction of reporter-positive cells with nuclear | HeLa RPL29-GFP reporter | 0.21 ± 0.073
